Measured data: PubChem BioAssay AID686938 (Drosophila RNAi Screening Center, 2013)
Aim: 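Looking for CRAC channel components and the factors controlling them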 (primary screen). Cell system: Drosophila S2R+ cells. Reagent: long dsRNA against Drosophila genes, about 0.25 µg dsRNA per well, roughly 10,000 cells. Time to read-out: 5 days of knock-down before the calcium assay. Conditions: thapsigargin (SERCA pump blocker) to empty calcium stores; entry signal taken 4 min after adding it. Read-out: 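Per-well fluo-4 fluorescence in two replicates, unnormalised, measured in resting cells and 4 min after store depletion by the SERCA blocker thapsigargin; ratio of the two present in few wells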. Reading the numbers: calcium entry signal: higher = stronger calcium signal after store depletion; entry to resting ratio: higher = more calcium entry relative to resting level; resting calcium signal: higher = higher resting calcium signal. Rule for the call: 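Hit if the duplicate-averaged plate z-score for entry over resting signal is under −3; wells with weak total dye signal (Fmax z < −2) or more than 5 off-targets removed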. Meaning of the calls: active = strongly reduced calcium entry; inactive = no strong reduction.
The deposit covers about 23,000 reagents; this is an unselected part of those with a known target gene and a result. Of all reagents, 75 (0.33%) were called active. 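Raw plate signals without normalisation; calls rest on plate z-scores that were not deposited; ratio present for only 364 wells.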 Reagents against one gene are numbered here. Names joined by + are all predicted targets of the reagent. Not given: the dose of the treatment.

target,dsRNA no.,"calcium entry signal, replicate 1 (fluorescence units)","calcium entry signal, replicate 2 (fluorescence units)",entry to resting ratio,"resting calcium signal, replicate 1 (fluorescence units)","resting calcium signal, replicate 2 (fluorescence units)",Call
CG10589 (GeneID 40313),1,3.00e7,6.06e7,,1.45e7,2.17e7,inactive
CG13272 (GeneID 35013),1,4.08e7,2.49e7,,1.90e7,1.35e7,inactive
CG13272 (GeneID 35013),2,3.61e7,3.75e7,,2.20e7,1.81e7,inactive
CG31226 (GeneID 318633),1,2.56e7,3.28e7,,1.41e7,1.62e7,inactive
gce (GeneID 32457),1,1.68e7,1.93e7,,9.81e6,9.83e6,inactive
gce (GeneID 32457),2,1.78e7,2.39e7,,9.78e6,9.75e6,inactive
lncRNA:CR43613 (GeneID 12798296),1,4.25e7,3.87e7,,1.86e7,2.01e7,inactive
Pgant4 (GeneID 261610),1,2.80e7,3.17e7,,1.49e7,1.42e7,inactive
a6 (GeneID 31127),1,3.47e7,3.73e7,,1.66e7,1.86e7,inactive
CG18568 (GeneID 36549),1,3.03e7,2.88e7,,1.34e7,1.44e7,inactive
ncd (GeneID 43517),1,3.02e7,3.68e7,,1.49e7,1.74e7,inactive
Cyp4aa1 (GeneID 36752),1,2.78e7,2.84e7,,1.34e7,1.38e7,inactive
CCDC53 (GeneID 34097),1,3.63e7,5.38e7,,1.72e7,2.32e7,inactive
a10 (GeneID 39906),1,3.34e7,4.76e7,,1.70e7,1.81e7,inactive
CG14545 (GeneID 50075),1,3.83e7,7.13e7,,1.85e7,2.95e7,inactive
CG13678 (GeneID 38922),1,5.32e7,3.50e7,,2.78e7,1.82e7,inactive
Iml1 (GeneID 38176),1,3.29e7,3.36e7,,1.65e7,1.92e7,inactive
CG7560 (GeneID 39276),1,3.24e7,4.46e7,,1.67e7,1.84e7,inactive
Or98P (GeneID 3772262),1,3.10e7,4.01e7,,1.42e7,1.70e7,inactive
RhoGAPp190 (GeneID 32743),1,3.16e7,3.10e7,,1.62e7,1.28e7,inactive
RhoGAPp190 (GeneID 32743),2,3.22e7,3.63e7,,1.49e7,1.70e7,inactive
CG12129 (GeneID 36044),1,4.23e7,3.89e7,,1.83e7,1.85e7,inactive
Dys (GeneID 42327),1,3.62e7,2.88e7,,1.60e7,1.28e7,inactive
Dys (GeneID 42327),2,4.63e7,3.30e7,,2.62e7,1.57e7,inactive
Dys (GeneID 42327),3,4.15e7,3.92e7,,5.98e7,1.76e7,inactive
Dys (GeneID 42327),4,4.30e7,5.51e7,,6.18e7,2.40e7,inactive
Dys (GeneID 42327),5,3.89e7,4.95e7,,5.61e7,2.15e7,inactive
Dys (GeneID 42327),6,4.05e7,4.97e7,,4.42e7,2.18e7,inactive
Dys (GeneID 42327),7,4.05e7,5.08e7,,6.07e7,2.23e7,inactive
CG12464 (GeneID 36516),1,3.76e7,4.35e7,,1.95e7,1.84e7,inactive
ChAT (GeneID 42249),1,4.92e7,2.29e7,,1.95e7,1.11e7,inactive
ChAT (GeneID 42249),2,3.26e7,3.57e7,,5.79e7,1.56e7,inactive
ChAT (GeneID 42249),3,3.81e7,3.55e7,,2.20e7,1.73e7,inactive
CG32264 (GeneID 38438),1,3.59e7,4.68e7,,1.92e7,2.13e7,inactive
CG32264 (GeneID 38438),2,3.04e7,3.98e7,,1.58e7,1.75e7,inactive
CG32264 (GeneID 38438),3,4.32e7,3.41e7,,2.60e7,1.34e7,inactive
CG32264 (GeneID 38438),4,3.07e7,7.04e7,,1.64e7,2.90e7,inactive
CG32264 (GeneID 38438),5,3.27e7,3.50e7,,1.74e7,1.72e7,inactive
Cyp6a2 (GeneID 35587),1,3.73e7,4.99e7,,1.76e7,2.21e7,inactive
CG14866 (GeneID 41854),1,3.39e7,5.61e7,,1.64e7,5.73e7,inactive
sens-2 (GeneID 33957),1,3.53e7,3.23e7,,1.68e7,1.62e7,inactive
sens-2 (GeneID 33957),2,3.56e7,2.94e7,,1.66e7,1.53e7,inactive
sens-2 (GeneID 33957),3,4.34e7,3.03e7,,2.25e7,1.52e7,inactive
Tob (GeneID 32574),1,3.73e7,4.04e7,,1.70e7,1.90e7,inactive
CG7884 (GeneID 32914),1,5.14e7,4.97e7,,2.57e7,2.17e7,inactive
CG13204 (GeneID 36227),1,3.06e7,4.25e7,,1.56e7,2.00e7,inactive
Gem4b + Gem4c,1,4.38e7,3.48e7,,2.18e7,1.41e7,inactive
CG15120 (GeneID 37248),1,4.94e7,6.04e7,,1.97e7,2.76e7,inactive
CG14538 (retired record) (GeneID 34056),1,2.57e7,3.81e7,,1.12e7,1.66e7,inactive
CG12522 (GeneID 39248),1,3.84e7,4.33e7,,1.85e7,1.99e7,inactive
Cyp12c1 (GeneID 40037),1,2.97e7,4.06e7,,1.37e7,2.65e7,inactive
Osi22 (GeneID 41632),1,2.88e7,3.91e7,,1.42e7,5.37e7,inactive
Lnk (GeneID 43130),1,2.28e7,2.91e7,,1.11e7,1.35e7,inactive
Nnp-1 (GeneID 44391),1,2.07e7,1.41e7,,1.10e7,7.72e6,inactive
Ada (GeneID 41092),1,4.07e7,5.22e7,,2.05e7,2.21e7,inactive
Der-1 (GeneID 33369),1,3.61e7,,,2.34e7,,inactive
Mink (GeneID 42982),1,4.42e7,4.52e7,,2.03e7,1.97e7,inactive
Delta (GeneID 42313),1,3.62e7,4.03e7,,5.52e7,1.93e7,inactive
CG43376 (GeneID 12798198),1,4.58e7,2.76e7,,2.03e7,1.43e7,inactive
Hexo1 (GeneID 38528),1,3.70e7,2.90e7,,2.04e7,1.49e7,inactive
E(bx) (GeneID 44811),1,3.47e7,3.97e7,,1.88e7,1.84e7,inactive
E(bx) (GeneID 44811),2,3.27e7,3.70e7,,1.74e7,1.75e7,inactive
E(bx) (GeneID 44811),3,4.82e7,3.94e7,,2.19e7,1.99e7,inactive
Ugt36E1 (GeneID 35139),1,6.30e7,,,2.93e7,,inactive
CG14410 (GeneID 32409),1,3.07e7,3.45e7,,1.54e7,1.34e7,inactive
gry (GeneID 38391),1,3.31e7,2.53e7,,1.38e7,1.21e7,inactive
gry (GeneID 38391),2,3.68e7,2.41e7,,2.46e7,1.20e7,inactive
hbt (GeneID 34738),1,4.89e7,7.91e7,,2.05e7,2.76e7,inactive
hbt (GeneID 34738),2,2.73e7,1.60e7,,1.35e7,8.33e6,inactive
CG3092 (GeneID 37682),1,3.80e7,,,1.88e7,,inactive
CG3939 (GeneID 31295),1,3.81e7,5.34e7,2,1.87e7,2.04e7,inactive
CG10845 (GeneID 42978),1,3.44e7,4.40e7,,1.74e7,1.85e7,inactive
CG15676 (GeneID 37472),1,4.39e7,4.05e7,,2.04e7,1.84e7,inactive
Las (GeneID 40259),1,4.28e7,4.78e7,,1.90e7,3.23e7,inactive
CG15115 (GeneID 37192),1,4.14e7,3.12e7,,2.11e7,1.62e7,inactive

Taken from above.
CG32264 (GeneID 38438) #2, Call = inactive
Result of sens-2 (GeneID 33957) #2 under “calcium entry signal, replicate 2 (fluorescence units)”: 2.94e7
CG14545 (GeneID 50075), Call: inactive
For “resting calcium signal, replicate 2 (fluorescence units)”, Dys (GeneID 42327) #3 is entered as 1.76e7
Value of CG3092 (GeneID 37682) in “resting calcium signal, replicate 1 (fluorescence units)”: 1.88e7
Entry of E(bx) (GeneID 44811) #2 in “calcium entry signal, replicate 1 (fluorescence units)”: 3.27e7
